Results deposited as PubChem BioAssay AID1508597 (Cure First, 2020).

Assay: 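Knock-downs altering ovarian cancer cell survival with or without PARP inhibitor rucaparib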 (primary screen)
System: human ovarian carcinoma lines grown from tumours: OCI-P5x (papillary serous) and OCI-C5x (clear cell)
Knock-down reagent: siRNA pool against human genes, 1.25 pmol siRNA per well
Time to read-out: 72 h or 96 h, depending on the cell culture
Challenge: rucaparib 20 µM (about IC30) or vehicle, present until read-out
Rucaparib or vehicle: Vehicle
Cell line: OCI-C5x (clear cell)
Measurement: 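ATP luminescence measured at 72 or 96 h according to the culture, then normalised and expressed as percent viability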
Scale: viability, normalised: higher = more viable cells remaining
Rule for the call: 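Active when normalised viability falls below 80 percent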
Meaning of the calls: active = viability under 80%; inactive = viability 80% or more
This is an unselected part of the about 2,100 reagents, in one setting of the screen. 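Calls flag viability under 80% in either arm, not effects specific to rucaparib; the reference for percent is not stated.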 Reagents against one gene are numbered here. Some reagents were tested in more than one well and are listed for each. Not given: the 100% reference.

gene symbol | pool no. | technical replicate | viability, normalised (%) | call
CBX4 | 1 | 1 | 50.7 | active
CBX4 | 1 | 2 | 60.3 | active
CBX4 | 1 | 3 | 65.1 | active
GTF2H1 | 1 | 1 | 53.1 | active
GTF2H1 | 1 | 2 | 67.9 | active
GTF2H1 | 1 | 3 | 51.6 | active
ABRAXAS1 | 1 | 1 | 67.5 | active
ABRAXAS1 | 1 | 2 | 76.1 | active
ABRAXAS1 | 1 | 3 | 64.8 | active
ABRAXAS1 | 2 | 1 | 48.6 | active
ABRAXAS1 | 2 | 2 | 51.1 | active
ABRAXAS1 | 2 | 3 | 43.1 | active
NABP2 | 1 | 1 | 46.2 | active
NABP2 | 1 | 2 | 31.9 | active
NABP2 | 1 | 3 | 64.4 | active
DIDO1 | 1 | 1 | 39.8 | active
DIDO1 | 1 | 2 | 30.6 | active
DIDO1 | 1 | 3 | 36.3 | active
IP6K2 | 1 | 1 | 69.1 | active
IP6K2 | 1 | 2 | 61 | active
IP6K2 | 1 | 3 | 56.4 | active
CIT | 1 | 1 | 63 | active
CIT | 1 | 2 | 68.2 | active
CIT | 1 | 3 | 68.4 | active
MPP2 | 1 | 1 | 82.7 | inactive
MPP2 | 1 | 2 | 79.3 | active
MPP2 | 1 | 3 | 49.7 | active
BRPF1 | 1 | 1 | 41.3 | active
BRPF1 | 1 | 2 | 39 | active
BRPF1 | 1 | 3 | 47.2 | active
AGO3 | 1 | 1 | 46.9 | active
AGO3 | 1 | 2 | 47 | active
AGO3 | 1 | 3 | 57.8 | active
MAPK11 | 1 | 1 | 66.3 | active
MAPK11 | 1 | 2 | 82.9 | inactive
MAPK11 | 1 | 3 | 53.3 | active
APP | 1 | 1 | 40.2 | active
APP | 1 | 2 | 31.6 | active
APP | 1 | 3 | 33.6 | active
LBR | 1 | 1 | 55.9 | active
LBR | 1 | 2 | 68.3 | active
LBR | 1 | 3 | 61.5 | active

Entries above whose gene name starts with D or d:
gene symbol | pool no. | technical replicate | viability, normalised (%) | call
DIDO1 | 1 | 1 | 39.8 | active
DIDO1 | 1 | 2 | 30.6 | active
DIDO1 | 1 | 3 | 36.3 | active

Continued:
gene symbol | pool no. | technical replicate | viability, normalised (%) | call
MUTYH | 1 | 1 | 49.9 | active
MUTYH | 1 | 2 | 32.4 | active
MUTYH | 1 | 3 | 33.6 | active
FANCM | 1 | 1 | 48 | active
FANCM | 1 | 1 | 43.9 | active
FANCM | 1 | 2 | 51 | active
FANCM | 1 | 2 | 41 | active
FANCM | 1 | 3 | 36.9 | active
FANCM | 1 | 3 | 37.6 | active
ZMYND11 | 1 | 1 | 52.4 | active
ZMYND11 | 1 | 2 | 50.8 | active
ZMYND11 | 1 | 3 | 55.9 | active
CDK19 | 1 | 1 | 52.9 | active
CDK19 | 1 | 2 | 46.2 | active
CDK19 | 1 | 3 | 48.2 | active
RPS6KA5 | 1 | 1 | 49.9 | active
RPS6KA5 | 1 | 2 | 55.9 | active
RPS6KA5 | 1 | 3 | 47.1 | active
COQ8A | 1 | 1 | 57.7 | active
COQ8A | 1 | 2 | 65.9 | active
COQ8A | 1 | 3 | 52.9 | active
CLU | 1 | 1 | 41.3 | active
CLU | 1 | 2 | 29.9 | active
CLU | 1 | 3 | 47.3 | active
LMTK3 | 1 | 1 | 69.1 | active
LMTK3 | 1 | 2 | 80.2 | inactive
LMTK3 | 1 | 3 | 72.3 | active
CKM | 1 | 1 | 129 | inactive
CKM | 1 | 2 | 71.9 | active
CKM | 1 | 3 | 70.8 | active
FAAP24 | 1 | 1 | 57.8 | active
FAAP24 | 1 | 2 | 44.3 | active
FAAP24 | 1 | 3 | 55.7 | active
